Patent US20190010237A1
Results are given in words; binding and its absence hold for the method and conditions named. Some binding calls cover weakened binding; strength is not graded here.

By UniProt entry, the sequences of proteins in these tests, tags left out. Residues count along the entry.
UniProt P16471, residues 25-234: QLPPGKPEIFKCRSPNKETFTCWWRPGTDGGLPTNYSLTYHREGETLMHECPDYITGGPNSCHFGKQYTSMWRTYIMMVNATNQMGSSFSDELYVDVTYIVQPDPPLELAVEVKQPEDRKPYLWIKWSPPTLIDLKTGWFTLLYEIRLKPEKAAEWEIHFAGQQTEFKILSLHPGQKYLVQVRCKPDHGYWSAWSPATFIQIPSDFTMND

Biological target: PRLR (prolactin receptor, as named in the kinetics and crystallography paragraph) (UniProt P16471)
Test: X-ray crystallography of the complex

B1: h16f Fab fragment (Fab, V domains shown)
VH: EVQLVQSGAEVKKPGSSVKVSCKASGYTFTTYWMHWVRQAPGQGLEWIGEIDPSDSYSNYNQKFKDRATLTVDKSTSTAYMELSSLRSEDTAVYYCARNGGLGPAWFSYWGQGTLVTVSS
VL: DIQMTQSPSSVSASVGDRVTITCKASQYVGTAVAWYQQKPGKSPKLLIYSASNRYTGVPSRFSDSGSGTDFTLTISSLQPEDFATYFCQQYSSYPWTFGGGTKVEIK
**Q.** With B1 as the binder, how does the binding read?
**A.** binds
